# This is one part of the list.
# Experiments:
# Assay in all cases: glycan array binding signal (z-score within array); higher = stronger binding
# Settings in all cases: glycan notation: IUPAC condensed, linker removed
# [1] = molecular target: Fuc(a1-2)Gal(b1-4)[Fuc(a1-3)]GlcNAc(b1-3)Gal(b1-4)[Fuc(a1-3)]GlcNAc
# Outline: (§1)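 The Consortium for Functional Glycomics database supplied 3228 glycan arrays, of which those lacking an available protein sequence were dropped. The binding signal, a within-array Z-score, was averaged across arrays of the same protein sequence and across linkers. Negative scores can be read as non-binding.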
# [2] = molecular target: Fuc(a1-2)Gal(b1-4)[Fuc(a1-3)]GlcNAc(b1-3)Gal(b1-4)[Fuc(a1-3)]GlcNAc(b1-3)Gal(b1-4)[Fuc(a1-3)]GlcNAc
# Outline: as §1
# [3] = molecular target: Fuc(a1-2)Gal(b1-4)[Fuc(a1-3)]GlcNAc(b1-3)GalNAc
# Outline: as §1
# [4] = molecular target: Fuc(a1-2)Gal(b1-4)[Fuc(a1-3)]GlcNAc(b1-3)[Neu5Ac(a2-6)Gal(b1-4)GlcNAc(b1-6)]Gal(b1-4)Glc
# Outline: as §1
# [5] = molecular target: Fuc(a1-2)Gal3S(b1-4)GlcNAc
# Outline: as §1
# [6] = molecular target: Fuc(a1-2)Gal6S(b1-3)GlcNAc
# Outline: as §1
# [7] = molecular target: Fuc(a1-2)Gal6S(b1-3)GlcNAc6S
# Outline: as §1
# [8] = molecular target: Fuc(a1-2)Gal6S(b1-4)Glc
# Outline: as §1
# [9] = molecular target: Fuc(a1-2)Gal6S(b1-4)Glc6S
# Outline: as §1
# [10] = molecular target: Fuc(a1-2)Gal6S(b1-4)GlcNAc
# Outline: as §1
# [11] = molecular target: Fuc(a1-2)[Gal(a1-3)]Gal
# Outline: as §1
# [12] = molecular target: Fuc(a1-2)[Gal(a1-3)]Gal(b1-3)GalNAc
# Outline: as §1
# [13] = molecular target: Fuc(a1-2)[Gal(a1-3)]Gal(b1-3)GalNAc(b1-3)Gal(a1-4)Gal(b1-4)Glc
# Outline: as §1
# [14] = molecular target: Fuc(a1-2)[Gal(a1-3)]Gal(b1-3)GlcNAc
# Outline: as §1
# [15] = molecular target: Fuc(a1-2)[Gal(a1-3)]Gal(b1-3)GlcNAc(b1-2)Man(a1-3)[Fuc(a1-2)[Gal(a1-3)]Gal(b1-3)GlcNAc(b1-2)Man(a1-6)]Man(b1-4)GlcNAc(b1-4)GlcNAc
# Outline: as §1
# [16] = molecular target: Fuc(a1-2)[Gal(a1-3)]Gal(b1-3)GlcNAc(b1-2)Man(a1-3)[Fuc(a1-2)[Gal(a1-3)]Gal(b1-3)GlcNAc(b1-2)Man(a1-6)]Man(b1-4)GlcNAc(b1-4)[Fuc(a1-6)]GlcNAc
# Outline: as §1
# [17] = molecular target: Fuc(a1-2)[Gal(a1-3)]Gal(b1-3)GlcNAc(b1-3)GalNAc
# Outline: as §1
# [18] = molecular target: Fuc(a1-2)[Gal(a1-3)]Gal(b1-3)GlcNAc(b1-6)GalNAc
# Outline: as §1
# [19] = molecular target: Fuc(a1-2)[Gal(a1-3)]Gal(b1-4)Glc
# Outline: as §1
# [20] = molecular target: Fuc(a1-2)[Gal(a1-3)]Gal(b1-4)GlcNAc
# Outline: as §1
# [21] = molecular target: Fuc(a1-2)[Gal(a1-3)]Gal(b1-4)GlcNAc(b1-2)Man
# Outline: as §1
# [22] = molecular target: Fuc(a1-2)[Gal(a1-3)]Gal(b1-4)GlcNAc(b1-2)Man(a1-3)[Fuc(a1-2)[Gal(a1-3)]Gal(b1-4)GlcNAc(b1-2)Man(a1-6)]Man(b1-4)GlcNAc(b1-4)GlcNAc
# Outline: as §1
# [23] = molecular target: Fuc(a1-2)[Gal(a1-3)]Gal(b1-4)GlcNAc(b1-2)Man(a1-3)[Fuc(a1-2)[Gal(a1-3)]Gal(b1-4)GlcNAc(b1-2)Man(a1-6)]Man(b1-4)GlcNAc(b1-4)[Fuc(a1-6)]GlcNAc
# Outline: as §1
# [24] = molecular target: Fuc(a1-2)[Gal(a1-3)]Gal(b1-4)GlcNAc(b1-3)GalNAc
# Outline: as §1
# [25] = molecular target: Fuc(a1-2)[Gal(a1-3)]Gal(b1-4)GlcNAc(b1-6)GalNAc
# Outline: as §1
# [26] = molecular target: Fuc(a1-2)[Gal(a1-3)]Gal(b1-4)[Fuc(a1-3)]Glc
# Outline: as §1
# [27] = molecular target: Fuc(a1-2)[Gal(a1-3)]Gal(b1-4)[Fuc(a1-3)]GlcNAc
# Outline: as §1
# [28] = molecular target: Fuc(a1-2)[Gal(a1-3)]Gal(b1-4)[Fuc(a1-3)]GlcNAc(b1-3)GalNAc
# Outline: as §1
# [29] = molecular target: Fuc(a1-2)[Gal(a1-4)]Gal(b1-4)GlcNAc
# Outline: as §1
# [30] = molecular target: Fuc(a1-2)[GalNAc(a1-3)]Gal
# Outline: as §1
# [31] = molecular target: Fuc(a1-2)[GalNAc(a1-3)]Gal(b1-3)GalNAc(a1-3)[Fuc(a1-2)]Gal(b1-4)GlcNAc
# Outline: as §1
# [32] = molecular target: Fuc(a1-2)[GalNAc(a1-3)]Gal(b1-3)GalNAc(b1-3)Gal(a1-4)Gal(b1-4)Glc
# Outline: as §1
# [33] = molecular target: Fuc(a1-2)[GalNAc(a1-3)]Gal(b1-3)GlcNAc
# Outline: as §1
# [34] = molecular target: Fuc(a1-2)[GalNAc(a1-3)]Gal(b1-3)GlcNAc(b1-2)Man(a1-3)[Fuc(a1-2)[GalNAc(a1-3)]Gal(b1-3)GlcNAc(b1-2)Man(a1-6)]Man(b1-4)GlcNAc(b1-4)GlcNAc
# Outline: as §1
# [35] = molecular target: Fuc(a1-2)[GalNAc(a1-3)]Gal(b1-3)GlcNAc(b1-2)Man(a1-3)[Fuc(a1-2)[GalNAc(a1-3)]Gal(b1-3)GlcNAc(b1-2)Man(a1-6)]Man(b1-4)GlcNAc(b1-4)[Fuc(a1-6)]GlcNAc
# Outline: as §1
# [36] = molecular target: Fuc(a1-2)[GalNAc(a1-3)]Gal(b1-3)GlcNAc(b1-3)GalNAc
# Outline: as §1
# [37] = molecular target: Fuc(a1-2)[GalNAc(a1-3)]Gal(b1-3)GlcNAc(b1-6)GalNAc
# Outline: as §1
# [38] = molecular target: Fuc(a1-2)[GalNAc(a1-3)]Gal(b1-4)Glc
# Outline: as §1
# [39] = molecular target: Fuc(a1-2)[GalNAc(a1-3)]Gal(b1-4)GlcNAc
# Outline: as §1
# [40] = molecular target: Fuc(a1-2)[GalNAc(a1-3)]Gal(b1-4)GlcNAc(b1-2)Man
# Outline: as §1
# [41] = molecular target: Fuc(a1-2)[GalNAc(a1-3)]Gal(b1-4)GlcNAc(b1-2)Man(a1-3)[Fuc(a1-2)[GalNAc(a1-3)]Gal(b1-4)GlcNAc(b1-2)Man(a1-6)]Man(b1-4)GlcNAc(b1-4)GlcNAc
# Outline: as §1
# [42] = molecular target: Fuc(a1-2)[GalNAc(a1-3)]Gal(b1-4)GlcNAc(b1-2)Man(a1-3)[Fuc(a1-2)[GalNAc(a1-3)]Gal(b1-4)GlcNAc(b1-2)Man(a1-6)]Man(b1-4)GlcNAc(b1-4)[Fuc(a1-6)]GlcNAc
# Outline: as §1
# [43] = molecular target: Fuc(a1-2)[GalNAc(a1-3)]Gal(b1-4)GlcNAc(b1-3)Gal(b1-4)GlcNAc
# Outline: as §1
# [44] = molecular target: Fuc(a1-2)[GalNAc(a1-3)]Gal(b1-4)GlcNAc(b1-3)Gal(b1-4)GlcNAc(b1-3)Gal(b1-4)GlcNAc
# Outline: as §1
# [45] = molecular target: Fuc(a1-2)[GalNAc(a1-3)]Gal(b1-4)GlcNAc(b1-3)GalNAc
# Outline: as §1
binder,measurement,setting,value
"Gal 10 (Homo sapiens), Q05315 (protein) MSLLPVPYTEAASLSTGSTVTIKGRPLVCFLNEPYLQVDFHTEMKEESDIVFHFQVCFGRRVVMNSREYGAWKQQVESKNMPFQDGQEFELSISVLPDKYQVMVNGQSSYTFDHRIKPEAVKMVQVWRDISLTKFNVSYLKR",glycan array binding signal (z-score),[1],-1.35
same,glycan array binding signal (z-score),[2],1.07
same,glycan array binding signal (z-score),[3],2.13
same,glycan array binding signal (z-score),[4],-0.624
same,glycan array binding signal (z-score),[5],-0.518
same,glycan array binding signal (z-score),[6],-0.264
same,glycan array binding signal (z-score),[7],0.571
same,glycan array binding signal (z-score),[8],1.38
same,glycan array binding signal (z-score),[9],-0.097
same,glycan array binding signal (z-score),[10],-0.128
same,glycan array binding signal (z-score),[11],-0.332
same,glycan array binding signal (z-score),[12],1.32
same,glycan array binding signal (z-score),[13],-0.636
same,glycan array binding signal (z-score),[14],0.328
same,glycan array binding signal (z-score),[15],-0.66
same,glycan array binding signal (z-score),[16],0.543
same,glycan array binding signal (z-score),[17],-0.445
same,glycan array binding signal (z-score),[18],-0.063
same,glycan array binding signal (z-score),[19],-0.179
same,glycan array binding signal (z-score),[20],-0.644
same,glycan array binding signal (z-score),[21],-0.269
same,glycan array binding signal (z-score),[22],0.256
same,glycan array binding signal (z-score),[23],1.39
same,glycan array binding signal (z-score),[24],-0.339
same,glycan array binding signal (z-score),[25],1.28
same,glycan array binding signal (z-score),[26],-0.338
same,glycan array binding signal (z-score),[27],-0.426
same,glycan array binding signal (z-score),[28],-0.183
same,glycan array binding signal (z-score),[29],-0.389
same,glycan array binding signal (z-score),[30],-0.25
same,glycan array binding signal (z-score),[31],-0.923
same,glycan array binding signal (z-score),[32],-0.64
same,glycan array binding signal (z-score),[33],0.276
same,glycan array binding signal (z-score),[34],0.476
same,glycan array binding signal (z-score),[35],-0.105
same,glycan array binding signal (z-score),[36],0.64
same,glycan array binding signal (z-score),[37],0.016
same,glycan array binding signal (z-score),[38],-0.504
same,glycan array binding signal (z-score),[39],-0.397
same,glycan array binding signal (z-score),[40],-0.035
same,glycan array binding signal (z-score),[41],-0.132
same,glycan array binding signal (z-score),[42],0.6
same,glycan array binding signal (z-score),[43],-0.116
same,glycan array binding signal (z-score),[44],0.348
same,glycan array binding signal (z-score),[45],1.76

# Shown with bars between the fields: part of the list above
binder | measurement | setting | value
Gal 10 (Homo sapiens), Q05315 (protein) MSLLPVPYTEAASLSTGSTVTIKGRPLVCFLNEPYLQVDFHTEMKEESDIVFHFQVCFGRRVVMNSREYGAWKQQVESKNMPFQDGQEFELSISVLPDKYQVMVNGQSSYTFDHRIKPEAVKMVQVWRDISLTKFNVSYLKR | glycan array binding signal (z-score) | [30] | -0.25
same | glycan array binding signal (z-score) | [31] | -0.923
same | glycan array binding signal (z-score) | [32] | -0.64

# — the supplement of paper PMC8728848
